Data on 14 compounds can be found in PubChem BioAssay AID248 (DTP/NCI, 2004).

Molecules are shown by their SMILES. The list shows only some results of the screen, not a fair sample: it gathers tests that were run many times, whatever their T/C, doses with no T/C, and many T/C values between a quarter and a half above the control. Other doses and runs of a compound stand elsewhere. T/C gives the treated animals as a percentage of the vehicle group. Some doses have a count of surviving animals in place of a T/C: the source holds a T/C of zero for them, seemingly a mark for toxic or unscored doses. Some survivor counts are full or nearly so, which does not show that the dose was tolerated: survival well below the control is almost never listed, so the zero probably covers shortened survival too. Survivors were counted at the toxicity check, usually on the fifth day, unless a day is given; later deaths do not show. Schedules are NCI's codes, read here as Q, the interval in days (D) or hours (H), X, the number of doses. Some schedule codes hold Z or #, which are not explained here. Some doses were run more than once; their values stand side by side, smallest first. Where survival is the endpoint, this PubChem deposit counts one and a half times the control or more as active, and values a quarter to a half above the control carry no call in these data; other NCI protocols may use other cut-offs. Some T/C values carry the count of animals alive at the toxicity check (mostly the fifth day); where none is given, no animal had died by that day.

The test system of the experiment is L1210 leukemia ip in BDF1 mice, survival T/C. Put plainly: NCI In Vivo Anticancer Drug Screen. Data for tumor model L1210 Leukemia (intraperitoneal) in B6D2F1 (BDF1) mice. The note with it: T/C endpoint: mean survival time, higher T/C = longer survival.
Setting [1] is: dose: 100.0 mg/kg/injection, schedule: Q04DX003 (ip), vehicle: Klucel (hydroxypropylcellulose) (HPC).

For `CN(C)CC(=O)c1ccc(O)c(O)c1`, the T/C reads like this: (dose: 59.0 mg/kg/injection, schedule: Q01DX Z (ip), vehicle: saline) 126 % of control; (dose: 66.5 mg/kg/injection, schedule: Q#A X Z (ip), vehicle: saline) 146 % of control; (dose: 89.0 mg/kg/injection, schedule: Q01DX Z (ip), vehicle: saline) 129 % of control; (dose: 100.0 mg/kg/injection, schedule: Q#A X Z (ip), vehicle: saline) 137 % of control; (dose: 150.0 mg/kg/injection, schedule: Q01DX010 (ip), vehicle: saline) 138 and 140 % of control; (dose: 150.0 mg/kg/injection, schedule: Q01DX Z (ip), vehicle: clinical formulation) 125 % of control. In addition, the T/C (dose: 200.0 mg/kg/injection, schedule: Q01DX Z (ip), vehicle: carboxymethylcellulose (CMC)) is 133 % of control; the T/C (dose: 200.0 mg/kg/injection, schedule: Q01DX Z (ip), vehicle: saline) is 128, 130, 133 % of control; the T/C (dose: 225.0 mg/kg/injection, schedule: Q#A X Z (ip), vehicle: saline) was 132 % of control; the T/C (dose: 300.0 mg/kg/injection, schedule: Q01DX010 (ip), vehicle: saline) is 127 and 140 % of control; the T/C (dose: 300.0 mg/kg/injection, schedule: Q01DX Z (ip), vehicle: carboxymethylcellulose (CMC)) was 133 and 135 % of control [5 of 6 alive]; the T/C (dose: 300.0 mg/kg/injection, schedule: Q01DX Z (ip), vehicle: clinical formulation) was 127 % of control. Moreover, the T/C runs as follows: (dose: 300.0 mg/kg/injection, schedule: Q01DX Z (ip), vehicle: saline) 132 % of control; (dose: 450.0 mg/kg/injection, schedule: Q01DX Z (ip), vehicle: carboxymethylcellulose (CMC)) 130 % of control; (dose: 450.0 mg/kg/injection, schedule: Q01DX Z (ip), vehicle: saline) 127 % of control; (dose: 532.0 mg/kg/injection, schedule: Q01DX Z (ip), vehicle: carboxymethylcellulose (CMC)) 143 % of control; (dose: 600.0 mg/kg/injection, schedule: Q01DX010 (ip), vehicle: saline) 145 and 147 % of control; (dose: 600.0 mg/kg/injection, schedule: Q01DX Z (ip), vehicle: carboxymethylcellulose (CMC)) 131 % of control. Moreover, the T/C was 136 and 137 % of control (dose: 600.0 mg/kg/injection, schedule: Q01DX Z (ip), vehicle: clinical formulation); 130 % of control [5 of 6 alive] (dose: 600.0 mg/kg/injection, schedule: Q01DX Z (ip), vehicle: water); 147 % of control (dose: 675.0 mg/kg/injection, schedule: Q01DX Z (ip), vehicle: carboxymethylcellulose (CMC)); 145 % of control (dose: 800.0 mg/kg/injection, schedule: Q01DX Z (ip), vehicle: carboxymethylcellulose (CMC)). Moreover, the survivor count (dose: 337.5 mg/kg/injection, schedule: Q#A X Z (ip), vehicle: saline) was 0 of 6; the survivor count (dose: 450.0 mg/kg/injection, schedule: Q01DX007 (iv), vehicle: saline) is on record as 0 of 6; the survivor count (dose: 675.0 mg/kg/injection, schedule: Q01DX007 (iv), vehicle: saline) is listed as 0 of 6; the survivor count (dose: 675.0 mg/kg/injection, schedule: Q01DX Z (ip), vehicle: saline) was 1 of 6 and 6 of 6; the survivor count (dose: 800.0 mg/kg/injection, schedule: Q01DX Z (ip), vehicle: clinical formulation) is on record as 3 of 6; the survivor count (dose: 900.0 mg/kg/injection, schedule: Q03DX Z (ip), vehicle: saline) is 0 of 6 and 3 of 6. In addition, the survivor count (dose: 1200.0 mg/kg/injection, schedule: Q01DX Z (ip), vehicle: carboxymethylcellulose (CMC)) was 0 of 6 and 2 of 6; the survivor count (dose: 1200.0 mg/kg/injection, schedule: Q01DX Z (ip), vehicle: clinical formulation) is recorded as 0 of 6; the survivor count (dose: 1350.0 mg/kg/injection, schedule: Q03DX Z (ip), vehicle: saline) was 0 of 6 and 2 of 6; the survivor count (dose: 1400.0 mg/kg/injection, schedule: Q07DX Z (ip), vehicle: saline) was 1 of 6 and 6 of 6; the survivor count (dose: 1800.0 mg/kg/injection, schedule: Q01DX Z (oral), vehicle: saline) was 3 of 6; the survivor count (dose: 2025.0 mg/kg/injection, schedule: Q03DX Z (ip), vehicle: saline) is given as 0 of 6. Further, the survivor count was 0 of 6 and 6 of 6 (dose: 2100.0 mg/kg/injection, schedule: Q07DX Z (ip), vehicle: saline); 2 of 6 (dose: 2700.0 mg/kg/injection, schedule: Q01DX Z (oral), vehicle: saline); 0 of 6 and 6 of 6 (dose: 3150.0 mg/kg/injection, schedule: Q07DX Z (ip), vehicle: saline).
As to `CCCN=C(N)N=C(N)N`, the survivor count is 0 of 6 (dose: 200.0 mg/kg/injection, schedule: Q01DX009 (ip), vehicle: water) and 0 of 6 (dose: 400.0 mg/kg/injection, schedule: Q04DX003 (ip), vehicle: water).
For the compound `C/C(=N/C(=O)NN)c1ccc(Cl)cc1`, the survivor count (dose: 400.0 mg/kg/injection, schedule: Q04DX003 (ip), vehicle: saline with Tween-80) is listed as 5 of 6.
Take `O=S1(=O)C(c2ccccc2)=C1c1ccccc1`: the survivor count was 0 of 6 (dose: 100.0 mg/kg/injection, schedule: Q01DX001 (ip), vehicle: other); 1 of 6 (dose: 200.0 mg/kg/injection, schedule: Q01DX001 (ip), vehicle: other); 0 of 6 (dose: 400.0 mg/kg/injection, schedule: Q01DX001 (ip), vehicle: other).
On to `O=[N+]([O-])c1cccc(C=Nc2cccc(C(F)(F)F)c2)c1`, for which the survivor count (dose: 400.0 mg/kg/injection, schedule: Q01DX009 (ip), vehicle: Klucel (hydroxypropylcellulose) (HPC)) is reported as 6 of 6.
With `COc1ccc(OC)c(NC(=S)NC(=O)c2ccc(Cl)cc2Cl)c1`, the survivor count (dose: 400.0 mg/kg/injection, schedule: Q01DX009 (ip), vehicle: saline with Tween-80) was 6 of 6.
For `O=S(=O)(Cc1cccc(C(F)(F)F)c1)c1ccccc1-n1cccc1`, the survivor count under setting [1] was 5 of 6.
Turning to `Cc1ccc2c(c1)CC=CO2`, the survivor count by setting is: (dose: 200.0 mg/kg/injection, schedule: Q01DX009 (ip), vehicle: saline with Tween-80) 6 of 6; (dose: 400.0 mg/kg/injection, schedule: Q01DX009 (ip), vehicle: carboxymethylcellulose (CMC)) 6 of 6; (dose: 800.0 mg/kg/injection, schedule: Q01DX009 (ip), vehicle: carboxymethylcellulose (CMC)) 0 of 6.
Regarding `CC(/C=N/N=C(\N)N(C)C)=N\N=C(/N)N(C)C`, the survivor count (dose: 480.0 mg/kg/injection, schedule: Q01DX Z (ip), vehicle: carboxymethylcellulose (CMC)) is recorded as 3 of 6.
In the case of `O=C(NO)Oc1cccc2ccccc12`, the survivor count is, setting by setting: (dose: 100.0 mg/kg/injection, schedule: Q04DX002 (ip), vehicle: saline with Tween-80) 3 of 3; (dose: 200.0 mg/kg/injection, schedule: Q04DX002 (ip), vehicle: saline with Tween-80) 3 of 3; (dose: 400.0 mg/kg/injection, schedule: Q04DX002 (ip), vehicle: saline with Tween-80) 2 of 3.
Turning to `O=c1[nH]c(=O)n(C2CC(O)C(CO)O2)cc1Br` (stereo unspecified), the T/C (dose: 1200.0 mg/kg/injection, schedule: Q01DX009 (ip), vehicle: carboxymethylcellulose (CMC)) was 135 % of control.
Turning to `O=C(O)c1cc(-c2ccc(Cl)cc2)nc2c(Cl)cccc12`, the survivor count reads like this: under setting [1], 1 of 6; (dose: 200.0 mg/kg/injection, schedule: Q04DX003 (ip), vehicle: Klucel (hydroxypropylcellulose) (HPC)) 2 of 6; (dose: 400.0 mg/kg/injection, schedule: Q04DX003 (ip), vehicle: Klucel (hydroxypropylcellulose) (HPC)) 6 of 6.
Regarding `CCc1cccc[n+]1CC(=O)c1ccccc1`, the survivor count reads like this: (dose: 25.0 mg/kg/injection, schedule: Q01DX009 (ip), vehicle: saline) 0 of 6; (dose: 50.0 mg/kg/injection, schedule: Q04DX003 (ip), vehicle: saline) 0 of 6; (dose: 100.0 mg/kg/injection, schedule: Q04DX003 (ip), vehicle: saline) 0 of 6.
Consider `C1=NN=C2C=C3CCc4ccccc4C3CC12` (stereo unspecified), for which, under “dose: 400.0 mg/kg/injection, schedule: Q01DX001 (ip), vehicle: acetone”, the survivor count was 0 of 6.
